According to paper PMC7862700:
The list shows a part of the results. The exact form of the protein is not confirmed.

Target: T1, ETS1 (UniProt P14921)
T1 sequence: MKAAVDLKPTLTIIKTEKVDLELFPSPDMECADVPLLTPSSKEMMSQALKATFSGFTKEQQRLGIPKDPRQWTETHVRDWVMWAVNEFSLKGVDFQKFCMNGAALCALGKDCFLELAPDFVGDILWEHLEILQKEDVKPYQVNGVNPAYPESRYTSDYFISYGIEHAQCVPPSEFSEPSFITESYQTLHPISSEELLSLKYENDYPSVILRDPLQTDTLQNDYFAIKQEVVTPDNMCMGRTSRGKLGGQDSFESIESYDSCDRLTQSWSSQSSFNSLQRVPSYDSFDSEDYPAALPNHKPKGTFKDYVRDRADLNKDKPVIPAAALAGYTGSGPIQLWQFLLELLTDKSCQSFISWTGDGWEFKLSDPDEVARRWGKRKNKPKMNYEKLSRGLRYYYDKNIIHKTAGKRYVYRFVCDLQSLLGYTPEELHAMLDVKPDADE
Assay: DAPPL (digital affinity profiling via proximity ligation, sequencing)
Conditions: 10 mM Tris-HCl pH 7.5, 50 mM NaCl, 1 mM DTT, 4% glycerol, room temperature, 30 min; GST-TFs on glutathione beads, 16-mer random dsDNA library, 0.1% …; high values mean tight binding; double strand, one strand shown; scale: fold enrichment (6-mer frequency, TF over GST control)

Row | Sequence | binding signal
1 | TGTAAA | 1.26
2 | AACCTT | 1.24
3 | AGATTC | 1.18
4 | CCCGCA | 1.26
5 | ATTTAC | 1.33
6 | TGCTCA | 1.29
7 | ACTAGC | 1.1
8 | AATGCT | 1.31
9 | GTTTAA | 1.14
10 | TGACAC | 1.15
11 | GATACT | 1
12 | TTACTG | 1.22
13 | ACATCA | 1.18
14 | CTAATA | 1.13
15 | TACTCG | 1.14
16 | CCGTCC | 1.36
17 | CTGTCA | 1.18
18 | CTTGAC | 1.17
19 | ATTGCC | 1.27
20 | CTCTGT | 1.39
21 | TCTGCT | 1.23
22 | ACGCCC | 1.06
23 | AACACA | 1.44
24 | GCTTTG | 1.19
25 | CTCGTG | 1.03
26 | TACTAC | 1.34
27 | GCTTGC | 1.31
28 | TCTCCC | 1.68

2 records picked at random from the list so far:
Row | Sequence | binding signal
5 | ATTTAC | 1.33
11 | GATACT | 1

Following part:

Row | Sequence | binding signal
29 | GCCCTT | 1.29
30 | TAAAAC | 1.15
31 | CCATGC | 0.976
32 | TCCGGA | 2.36
33 | GGGCTT | 1.22
34 | GATCCT | 1.32
35 | AAAATT | 1.38
36 | TAGGTT | 1.16
37 | CGCCCT | 1.33
38 | AAAACA | 1.34
39 | TCATTT | 1.37
40 | TTTAGC | 1.15
41 | TACATT | 1.24
42 | CAACCA | 1.13
43 | ATCTCG | 1.41
44 | CTTCTA | 1.5
45 | CCAAAA | 1.32
46 | TTTTCA | 1.18
47 | TATTCT | 1.28
48 | ATCTAA | 1.2
49 | GGGCCT | 1.32
50 | TACCTC | 1.24
51 | TGGCAG | 1.08
52 | TGTTCA | 1.13
53 | CTTGTG | 1.44
54 | CTTTCT | 1.31
55 | CGATCC | 1.27
